Assay results from patent US20130287684A1 (SYMPHOGEN A S, published 2013).
No constants are given. Whether binding was seen depends on the method and setting. Some binding calls cover weakened binding; strength is not graded here.

Amino acid sequences for entries named in this document (tags omitted). Residues count along the entry.
UniProt Q61526, residues 20-641: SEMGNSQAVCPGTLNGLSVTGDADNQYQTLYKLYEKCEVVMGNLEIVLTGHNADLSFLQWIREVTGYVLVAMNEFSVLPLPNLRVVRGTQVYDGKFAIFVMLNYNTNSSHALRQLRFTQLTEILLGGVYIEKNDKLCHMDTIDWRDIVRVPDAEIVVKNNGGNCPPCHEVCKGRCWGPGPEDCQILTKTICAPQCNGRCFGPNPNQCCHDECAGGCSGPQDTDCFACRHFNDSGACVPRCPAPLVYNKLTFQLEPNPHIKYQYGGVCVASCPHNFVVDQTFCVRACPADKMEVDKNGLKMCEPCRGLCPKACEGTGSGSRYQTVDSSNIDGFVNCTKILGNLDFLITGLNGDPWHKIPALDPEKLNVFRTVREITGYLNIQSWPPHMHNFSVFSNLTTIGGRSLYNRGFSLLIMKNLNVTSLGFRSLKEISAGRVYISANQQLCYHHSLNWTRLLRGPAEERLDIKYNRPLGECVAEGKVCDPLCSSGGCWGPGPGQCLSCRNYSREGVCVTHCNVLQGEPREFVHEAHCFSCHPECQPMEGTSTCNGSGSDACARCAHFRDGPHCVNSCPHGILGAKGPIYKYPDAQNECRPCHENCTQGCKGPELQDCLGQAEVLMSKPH

Experiments:
[1] = biological target: murine HER3 ECD construct with N-terminal histidine tag (murine) (UniProt Q61526); experiment: ELISA of Example 11, retold in Example 12
[2] = biological target: murine HER3 ECD construct with N-terminal histidine tag (murine) (UniProt Q61526); experiment: ELISA on coated His-tagged HER3 ECD constructs
[3] = biological target: murine HER3 ECD construct with N-terminal histidine tag (murine) (UniProt Q61526); experiment: ELISA, antibody titrated on coated His-tagged HER3 ECD construct (1 µg/ml), anti-human IgG Fc-HRP

Measured: binding

B1: antibody 5101 (antibody, human IgG1, kappa, V domains shown)
VH: EVKLVESGGGLVKPGGSLKLSCAASGFTFSSYGMSWVRQTPEKRLEWVATIRDGGGYTYYSDNVKGRFTISRDNAQNNLYLQMSHLKSEDTAMYYCARGILDYWGQGTSVTVSS
VL: QIVLTQSPSSLSASLGDRVTISCRASQDISNYLNWFQQRPDGTVKLLIYYTSRLHSGVPSRFSGSGSGTDYSLTISNLEQEDIATYFCQQGNTLPYTFGGGTKLELKR
notes: Chimeric: murine variable regions, human kappa constant region, expressed as full-length IgG
binds: all assays above

B2: antibody 5106 (antibody, human IgG1, kappa, V domains shown)
VH: EVKLVESGGDLVKPGESLKLSCAASGFTFSSFAMSWVRQTPEKRLEWVATISDGGSHLYYPDNVKGRFTISRDNAKNNLYLQMSHLKSEDTAMYYCARGILDYWGQGTSVTVSS
VL: DIVMTQATSSLSASLGDRVTISCSASQDINNYLNWYQQKPDGTIKLLIYYTSSLHSGVPSRFSGSGSGTDYSLTISNLEPEDIATYYCQQYSRIPYTFGGGTKLEIKR
notes: as for B1
binds: all assays above
